In US10668156B2, “Active-ingredient-containing solid dispersions based on diethylaminoethyl methacrylate copolymers” (BASF SE, priority 2012, dated 2020):

Experiment: Film method: loading capacity of active ingredient in polymer films, microscopic assessment after storage
Type: physicochemical
Conditions: no crystals in film, storage 7 days 23° C./54% relative humidity
Text: The film method is a process in which a clear solution of the polymer and of the active ingredient is molded to give a thin film which solidifies as a result of the solvent evaporating. Clear solution means that no clouding is evident upon normal inspection. This method is suitable in particular as a screening method in order to determine the loading limits of the solid dispersions in a simple manner. For the screening process, the film can be produced by pouring the solution with the corresponding concentrations of polymer and active ingredient onto glass plates and drawing it out with the help of a blade to give the film. Usually, the films are drawn to layer thicknesses of from 50 to 200 μm. The resulting films are then dried by drawing off the solvent, and solidified as a result. In one or more embodiments, the solvent is removed in vacuo, for example at 1 hPa to 100 hPa. […] Additionally, the removal of the solvent can be effected by the action of temperature.
For the screening process, the films produced are then stored under controlled climatic conditions for defined periods of time—generally 14 days.
The films can then be evaluated by microscope at 40 times magnification. Clear films are a sign of amorphous systems. Cloudy films point to relatively large crystalline fractions.
To prepare the polymer/active ingredient mixture, the substances were weighed in the respective amounts into a 50 ml penicillin bottle.
All of the mixtures were stirred for 24 h on a magnetic stirrer until the constituents had dissolved. After visually assessing the solution (clear solution), the solvent was drawn out on a glass plate using a 120 μm blade. The resulting film was dried for 0.5 h at room temperature of 22+/−2° C. in a fume cupboard and then for 0.5 h in a vacuum drying cabinet at 50° C. and […]. […] Clear films (without active ingredient crystals) indicate molecularly disperse solutions and cloudy films (with active ingredient crystals) indicate crystalline systems.

[1] = molecularly disperse dissolved active ingredient

Loading capacity, active ingredients in %, Films with Kollicoat ® Smartseal + 6 mol partially neutralized (6 mol % of basic groups neutralized with adipic acid): 20% | Loading capacity, active ingredients in %, Films with Kollicoat ® Smartseal + 8 mol partially neutralized (8 mol % of basic groups neutralized with succinic acid): 20% | Loading capacity, active ingredients in %, Films with Eudragit ® EPO [1]: <10% | Loading capacity, active ingredients in %, Films with Kollicoat ® Smartseal freeze-dried [1]: 20%
Compound: C(=C\c1ccccc1)/CN1CCN(C(c2ccccc2)c2ccccc2)CC1 [Cinnarizine]
